Source: publication PMC10923887
Results are given in words; binding and its absence hold for the method and conditions named. Binding seen in cells or lysates may run through a third protein. A yes stands for co-enrichment or nearness to the bait. Other partners may have been found.

By UniProt entry, the sequences of proteins in these tests, tags left out. Where a name states a change or a piece, a line headed by the entry shows the natural chain unless it says otherwise.
UniProt Q6RJR6: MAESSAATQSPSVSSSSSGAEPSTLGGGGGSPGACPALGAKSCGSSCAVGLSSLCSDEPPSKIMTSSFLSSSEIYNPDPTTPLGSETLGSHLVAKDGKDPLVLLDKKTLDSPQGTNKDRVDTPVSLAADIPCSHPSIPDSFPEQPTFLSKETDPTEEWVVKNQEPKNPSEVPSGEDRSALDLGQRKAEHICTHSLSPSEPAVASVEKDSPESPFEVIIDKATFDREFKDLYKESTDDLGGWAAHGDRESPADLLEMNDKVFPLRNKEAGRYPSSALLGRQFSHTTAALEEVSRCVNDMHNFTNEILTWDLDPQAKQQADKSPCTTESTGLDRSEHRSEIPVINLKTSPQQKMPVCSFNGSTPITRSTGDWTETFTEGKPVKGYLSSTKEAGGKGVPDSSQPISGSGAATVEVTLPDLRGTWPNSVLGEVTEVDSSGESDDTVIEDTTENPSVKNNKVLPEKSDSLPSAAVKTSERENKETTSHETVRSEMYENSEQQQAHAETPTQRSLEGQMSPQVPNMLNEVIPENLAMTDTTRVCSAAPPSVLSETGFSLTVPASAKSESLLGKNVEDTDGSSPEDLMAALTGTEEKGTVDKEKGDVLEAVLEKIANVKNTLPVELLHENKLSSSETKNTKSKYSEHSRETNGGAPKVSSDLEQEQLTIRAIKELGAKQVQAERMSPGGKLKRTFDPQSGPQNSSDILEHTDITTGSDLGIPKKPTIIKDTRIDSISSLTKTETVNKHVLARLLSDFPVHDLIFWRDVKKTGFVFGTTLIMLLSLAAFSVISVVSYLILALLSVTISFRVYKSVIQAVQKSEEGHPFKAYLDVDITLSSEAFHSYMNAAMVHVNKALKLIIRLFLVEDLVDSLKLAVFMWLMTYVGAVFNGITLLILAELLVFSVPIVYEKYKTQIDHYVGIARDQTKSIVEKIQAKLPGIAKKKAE

Target: Reticulon 3 (rat (endogenous in NRVCs)) (UniProt Q6RJR6)
Assay: affinity purification with mass spectrometry; RTN3 immunoprecipitation from cardiomyocytes, LC-MS/MS; IgG immunoprecipitation as negative control

binding: binds
B1: Fatty Acid Binding Protein 5 (protein, UniProt P55053 1-135)
chain: MASLKDLEGKWRLVESHGFEDYMKELGVGLALRKMGAMAKPDCIITLDGNNLTVKTESTVKTTVFSCTLGEKFDETTADGRKTETVCTFTDGALVQHQKWEGKESTITRKLKDGKMVVECVMNNAICTRVYEKVQ
